Measured values reported in article doi:10.1101/609503.
Read-outs that look alike come from different tables or passages of the source. These are yes or no findings as the source states them, for the method shown. In cells and extracts the contact can be indirect. These calls come from enrichment with a bait or labelling near it, and not all partners need be listed.

Amino acid sequences for entries named in this document (tags omitted). Residues count along the entry.
UniProt P06136: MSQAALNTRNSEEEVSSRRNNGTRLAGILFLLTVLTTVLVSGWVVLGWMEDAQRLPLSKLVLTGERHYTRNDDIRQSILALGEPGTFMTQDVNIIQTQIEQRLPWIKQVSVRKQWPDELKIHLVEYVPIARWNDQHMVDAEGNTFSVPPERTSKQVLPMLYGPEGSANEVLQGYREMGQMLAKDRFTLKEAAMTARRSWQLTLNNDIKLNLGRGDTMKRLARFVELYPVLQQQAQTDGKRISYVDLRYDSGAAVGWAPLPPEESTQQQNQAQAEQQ
UniProt P24228, residues 21-477: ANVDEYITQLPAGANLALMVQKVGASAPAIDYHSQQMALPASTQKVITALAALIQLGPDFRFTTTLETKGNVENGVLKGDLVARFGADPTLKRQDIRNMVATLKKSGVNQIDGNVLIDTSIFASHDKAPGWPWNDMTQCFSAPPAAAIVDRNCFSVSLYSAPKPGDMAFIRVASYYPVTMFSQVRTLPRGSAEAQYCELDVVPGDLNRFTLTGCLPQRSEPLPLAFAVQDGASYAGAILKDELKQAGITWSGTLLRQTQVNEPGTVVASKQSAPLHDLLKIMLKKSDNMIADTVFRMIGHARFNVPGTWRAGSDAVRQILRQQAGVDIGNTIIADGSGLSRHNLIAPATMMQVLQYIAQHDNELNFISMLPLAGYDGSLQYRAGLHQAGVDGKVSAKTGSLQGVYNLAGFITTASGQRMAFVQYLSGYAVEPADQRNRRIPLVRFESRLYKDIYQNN

Columns and labels:
[1] = target: T1, NlpI (soluble version, residues 19-294) (E. coli) (UniProt P0AFB1); assay: affinity purification with mass spectrometry
T1 sequence (chain, NT647 RED-NHS dye on amines where used as the labelled partner (fl-NlpI)): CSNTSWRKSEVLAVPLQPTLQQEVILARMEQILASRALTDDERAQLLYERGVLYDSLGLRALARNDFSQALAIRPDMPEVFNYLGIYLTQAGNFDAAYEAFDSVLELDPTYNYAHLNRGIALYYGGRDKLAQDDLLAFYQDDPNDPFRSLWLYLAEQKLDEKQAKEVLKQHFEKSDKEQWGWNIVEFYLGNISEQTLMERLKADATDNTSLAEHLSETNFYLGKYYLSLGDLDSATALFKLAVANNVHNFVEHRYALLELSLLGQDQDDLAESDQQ

[2] = target: T1, NlpI (soluble version, residues 19-294) (E. coli); assay: affinity purification with mass spectrometry; remark: listed apart in the source

Row | binding [1] | binding [2] | Substance
1 | binds | binds | FtsQ (endogenous, membrane extract) (from UniProt P06136 1-276)
2 |  | binds | PBP4 (endogenous, membrane extract) (from UniProt P24228 21-477) (enzyme)
